Data as given in PubChem BioAssay AID1259405 (NCATS, 2018)

Test: 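Mouse-designed siRNAs used to find CHO productivity engineering targets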 (primary screen)
Cells: Chinese hamster CHO-K1 ovary cells with stable secreted eGFP expression
Reagent: single siRNA against mouse genes, 0.8 pmol siRNA per well (2 µl of 400 nM stock)
Time to read-out: 3 days
Measurement: 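Per-well intracellular GFP measured by laser scanning cytometry, plus viability from ATP luminescence, each relative to plate median of non-targeting control wells, in %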
Reading the numbers: GFP, % of control: higher = more GFP per well, higher productivity; viability (ATP), % of control: higher = more viable cells (more ATP)
Call rule: 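Called active when intracellular GFP, relative to negative control, is at or above 120%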
Here is a random part of about 50,000 reagents tested. Of all reagents, about 4,000 (8%) were called active. 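Mouse siRNA library applied to hamster cells; one well for each siRNA.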

{"target":"Or1e30","PubChem SID":"SID363554256","GFP, % of control":65.6,"viability (ATP), % of control":53.1,"outcome":"inactive"}
{"target":"Or1e30","PubChem SID":"SID363567703","GFP, % of control":102,"viability (ATP), % of control":35.4,"outcome":"inactive"}
{"target":"Or1e30","PubChem SID":"SID363585060","GFP, % of control":56.5,"viability (ATP), % of control":115,"outcome":"inactive"}
{"target":"Gpam","PubChem SID":"SID363570428","GFP, % of control":132,"viability (ATP), % of control":76.4,"outcome":"active"}
{"target":"Gpam","PubChem SID":"SID363579228","GFP, % of control":70.2,"viability (ATP), % of control":55.8,"outcome":"inactive"}
{"target":"Gpam","PubChem SID":"SID363583100","GFP, % of control":59.8,"viability (ATP), % of control":86.1,"outcome":"inactive"}
{"target":"Jakmip1","PubChem SID":"SID363540008","GFP, % of control":91.3,"viability (ATP), % of control":99.1,"outcome":"inactive"}
{"target":"Jakmip1","PubChem SID":"SID363561309","GFP, % of control":113,"viability (ATP), % of control":108,"outcome":"inactive"}
{"target":"Jakmip1","PubChem SID":"SID363564345","GFP, % of control":61.3,"viability (ATP), % of control":74,"outcome":"inactive"}
{"target":"Prkag3","PubChem SID":"SID363573345","GFP, % of control":68.9,"viability (ATP), % of control":64.2,"outcome":"inactive"}
{"target":"Prkag3","PubChem SID":"SID363588584","GFP, % of control":68,"viability (ATP), % of control":81.1,"outcome":"inactive"}
{"target":"Creb5","PubChem SID":"SID363555370","GFP, % of control":97.2,"viability (ATP), % of control":84.4,"outcome":"inactive"}
{"target":"Creb5","PubChem SID":"SID363564031","GFP, % of control":101,"viability (ATP), % of control":35,"outcome":"inactive"}
{"target":"Creb5","PubChem SID":"SID363587577","GFP, % of control":108,"viability (ATP), % of control":114,"outcome":"inactive"}
{"target":"Vps37c","PubChem SID":"SID363552403","GFP, % of control":95.5,"viability (ATP), % of control":77.3,"outcome":"inactive"}
{"target":"Vps37c","PubChem SID":"SID363585539","GFP, % of control":91.8,"viability (ATP), % of control":87.2,"outcome":"inactive"}
{"target":"Vps37c","PubChem SID":"SID363585890","GFP, % of control":149,"viability (ATP), % of control":108,"outcome":"active"}
{"target":"Cbs","PubChem SID":"SID363570673","GFP, % of control":76.8,"viability (ATP), % of control":90.1,"outcome":"inactive"}
{"target":"Cbs","PubChem SID":"SID363579473","GFP, % of control":89.8,"viability (ATP), % of control":167,"outcome":"inactive"}
{"target":"Cbs","PubChem SID":"SID363583345","GFP, % of control":83.8,"viability (ATP), % of control":115,"outcome":"inactive"}
{"target":"Ube2d3","PubChem SID":"SID363572761","GFP, % of control":98.6,"viability (ATP), % of control":61.8,"outcome":"inactive"}
{"target":"Ube2d3","PubChem SID":"SID363578041","GFP, % of control":107,"viability (ATP), % of control":60.9,"outcome":"inactive"}
{"target":"Ube2d3","PubChem SID":"SID363582265","GFP, % of control":106,"viability (ATP), % of control":114,"outcome":"inactive"}
{"target":"Slc35e1","PubChem SID":"SID363547861","GFP, % of control":88.4,"viability (ATP), % of control":83.5,"outcome":"inactive"}
{"target":"Slc35e1","PubChem SID":"SID363558630","GFP, % of control":30.3,"viability (ATP), % of control":22.1,"outcome":"inactive"}
{"target":"Slc35e1","PubChem SID":"SID363560388","GFP, % of control":73.1,"viability (ATP), % of control":102,"outcome":"inactive"}
{"target":"Klk1b5","PubChem SID":"SID363547395","GFP, % of control":85.3,"viability (ATP), % of control":45.7,"outcome":"inactive"}
{"target":"Klk1b5","PubChem SID":"SID363558164","GFP, % of control":89.9,"viability (ATP), % of control":77.7,"outcome":"inactive"}
{"target":"Klk1b5","PubChem SID":"SID363559922","GFP, % of control":72.7,"viability (ATP), % of control":83.6,"outcome":"inactive"}
{"target":"Atxn3","PubChem SID":"SID363541159","GFP, % of control":85.7,"viability (ATP), % of control":80.6,"outcome":"inactive"}
{"target":"Atxn3","PubChem SID":"SID363555786","GFP, % of control":71.3,"viability (ATP), % of control":92.5,"outcome":"inactive"}
{"target":"Atxn3","PubChem SID":"SID363566075","GFP, % of control":66.1,"viability (ATP), % of control":84.8,"outcome":"inactive"}
{"target":"Igf2bp2","PubChem SID":"SID363541567","GFP, % of control":56.6,"viability (ATP), % of control":61,"outcome":"inactive"}
{"target":"Igf2bp2","PubChem SID":"SID363556194","GFP, % of control":49,"viability (ATP), % of control":61,"outcome":"inactive"}
{"target":"Igf2bp2","PubChem SID":"SID363566483","GFP, % of control":74.3,"viability (ATP), % of control":64.2,"outcome":"inactive"}

Next part (5 carried over from the part before).
{"target":"Atxn3","PubChem SID":"SID363555786","GFP, % of control":71.3,"viability (ATP), % of control":92.5,"outcome":"inactive"}
{"target":"Atxn3","PubChem SID":"SID363566075","GFP, % of control":66.1,"viability (ATP), % of control":84.8,"outcome":"inactive"}
{"target":"Igf2bp2","PubChem SID":"SID363541567","GFP, % of control":56.6,"viability (ATP), % of control":61,"outcome":"inactive"}
{"target":"Igf2bp2","PubChem SID":"SID363556194","GFP, % of control":49,"viability (ATP), % of control":61,"outcome":"inactive"}
{"target":"Igf2bp2","PubChem SID":"SID363566483","GFP, % of control":74.3,"viability (ATP), % of control":64.2,"outcome":"inactive"}
{"target":"Atg101","PubChem SID":"SID363542951","GFP, % of control":84.3,"viability (ATP), % of control":74.2,"outcome":"inactive"}
{"target":"Atg101","PubChem SID":"SID363546468","GFP, % of control":27.2,"viability (ATP), % of control":13.8,"outcome":"inactive"}
{"target":"Atg101","PubChem SID":"SID363548224","GFP, % of control":79.1,"viability (ATP), % of control":73.8,"outcome":"inactive"}
{"target":"Cstf2","PubChem SID":"SID363569318","GFP, % of control":57.3,"viability (ATP), % of control":56.7,"outcome":"inactive"}
{"target":"Cstf2","PubChem SID":"SID363577062","GFP, % of control":104,"viability (ATP), % of control":82,"outcome":"inactive"}
{"target":"Cstf2","PubChem SID":"SID363578470","GFP, % of control":56.3,"viability (ATP), % of control":32.4,"outcome":"inactive"}
{"target":"Tmem117","PubChem SID":"SID363546832","GFP, % of control":62.8,"viability (ATP), % of control":68,"outcome":"inactive"}
{"target":"Tmem117","PubChem SID":"SID363548588","GFP, % of control":63.2,"viability (ATP), % of control":83.6,"outcome":"inactive"}
{"target":"Tmem117","PubChem SID":"SID363560766","GFP, % of control":62.6,"viability (ATP), % of control":42.2,"outcome":"inactive"}
{"target":"Spink7","PubChem SID":"SID363573016","GFP, % of control":30.6,"viability (ATP), % of control":29.4,"outcome":"inactive"}
{"target":"Spink7","PubChem SID":"SID363577592","GFP, % of control":98.2,"viability (ATP), % of control":70,"outcome":"inactive"}
{"target":"Spink7","PubChem SID":"SID363581112","GFP, % of control":76.4,"viability (ATP), % of control":82.1,"outcome":"inactive"}
{"target":"Wdr45b","PubChem SID":"SID363540752","GFP, % of control":84.6,"viability (ATP), % of control":118,"outcome":"inactive"}
{"target":"Wdr45b","PubChem SID":"SID363543203","GFP, % of control":91.1,"viability (ATP), % of control":98.2,"outcome":"inactive"}
{"target":"Wdr45b","PubChem SID":"SID363552696","GFP, % of control":96.4,"viability (ATP), % of control":107,"outcome":"inactive"}
{"target":"Trmt2b","PubChem SID":"SID363545964","GFP, % of control":91.7,"viability (ATP), % of control":74.1,"outcome":"inactive"}
{"target":"Trmt2b","PubChem SID":"SID363549477","GFP, % of control":57.5,"viability (ATP), % of control":79.4,"outcome":"inactive"}
{"target":"Trmt2b","PubChem SID":"SID363563283","GFP, % of control":69.1,"viability (ATP), % of control":77.3,"outcome":"inactive"}
